Assay results published in patent US9284345B2 (priority 2007, dated 2016).
For some assays here: The name of at least one read-out is uncertain. At least one structure is not confirmed: it was looked up by name or label, or the drawing left a doubt.

Columns and labels:
[1] = tested on: Shionogi mouse mammary carcinoma cells; type: cell-based
[2] = tested on: CX+ 4-DIONE in Mature Rat; experiment: Systemic antiandrogenic activity in mature male rats; type: in vivo; conditions: orchidectomized mature rats with 4-dione implants

Row | SMILES | Shionogi cells Antiandrogenic activity Ki OH-Flu/Ki compound [1] | 4-dione-induced stimulation of seminal vesicle weight [2] | Ki ([1]; read-out: Shionogi cells Antiandrogenic activity Ki)
1 | C[C@]12CCC3c4ccc(C#N)c(Cl)c4CCC3C1CC[C@@]2(O)Cc1cc[n+]([O-])cc1F (some centres unmarked) [EM-5987] | 22 ± 7 |  | 
2 | C[C@]12CCC3c4ccc(C#N)c(F)c4CCC3C1CC[C@@]2(O)Cc1cc[n+]([O-])cc1Cl (some centres unmarked) [EM-8633] | 15 |  | 
3 | CC(C)C(=O)Nc1ccc([N+](=O)[O-])c(C(F)(F)F)c1 [Flutamide, reference compound] |  | completely reversed | 
4 | CC(O)(CS(=O)(=O)c1ccc(F)cc1)C(=O)Nc1ccc(C#N)c(C(F)(F)F)c1 (centres unmarked) [bicalutamide] |  | completely reversed | 48 ± 9 nM
